Experimental data reported in the supplement of paper PMC12823440, “Inhibitors supercharge kinase turnover through native proteolytic circuits” (Nature, 2025).
Structures can show the parent of a compound that is named as a salt. The list shows a part of the results. The calls rarely recur for the same compound in another form.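 Kinases, fused to nanoluciferase, were expressed in K562 cells; luminescence was measured every 4 h from 2 to 18 h as percent of control (DMSO = 100%, positive control = 0%). A time point is decreased if signal falls significantly (2 sigma). Hits were called by the authors by a rule that is not shown; the count of time points alone does not decide it.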

Chains of the proteins cited; added tags and fusions are not shown. Lines headed by an entry give the natural chain unless they say otherwise; changes in a name come on top.
UniProt P48729: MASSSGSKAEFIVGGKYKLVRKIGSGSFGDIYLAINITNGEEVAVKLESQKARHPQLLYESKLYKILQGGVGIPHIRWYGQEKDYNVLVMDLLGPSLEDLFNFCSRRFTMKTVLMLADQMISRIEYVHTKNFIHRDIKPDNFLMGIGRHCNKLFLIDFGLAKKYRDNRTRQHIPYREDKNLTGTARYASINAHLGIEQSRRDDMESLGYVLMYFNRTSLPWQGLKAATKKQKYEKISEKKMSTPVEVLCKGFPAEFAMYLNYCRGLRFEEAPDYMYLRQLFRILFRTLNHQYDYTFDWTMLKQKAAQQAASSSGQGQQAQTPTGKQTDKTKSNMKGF
UniProt P48730: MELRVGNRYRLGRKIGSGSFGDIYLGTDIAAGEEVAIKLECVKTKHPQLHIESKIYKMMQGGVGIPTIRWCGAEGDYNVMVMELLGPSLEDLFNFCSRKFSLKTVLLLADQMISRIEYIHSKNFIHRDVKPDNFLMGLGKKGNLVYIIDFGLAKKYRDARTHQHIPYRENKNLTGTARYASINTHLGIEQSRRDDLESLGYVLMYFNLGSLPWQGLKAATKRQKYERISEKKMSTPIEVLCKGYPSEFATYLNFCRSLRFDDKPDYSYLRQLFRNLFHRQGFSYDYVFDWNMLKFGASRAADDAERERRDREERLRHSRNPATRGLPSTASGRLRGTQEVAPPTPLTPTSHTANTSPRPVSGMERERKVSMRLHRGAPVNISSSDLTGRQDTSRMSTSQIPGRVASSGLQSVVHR
UniProt Q08345: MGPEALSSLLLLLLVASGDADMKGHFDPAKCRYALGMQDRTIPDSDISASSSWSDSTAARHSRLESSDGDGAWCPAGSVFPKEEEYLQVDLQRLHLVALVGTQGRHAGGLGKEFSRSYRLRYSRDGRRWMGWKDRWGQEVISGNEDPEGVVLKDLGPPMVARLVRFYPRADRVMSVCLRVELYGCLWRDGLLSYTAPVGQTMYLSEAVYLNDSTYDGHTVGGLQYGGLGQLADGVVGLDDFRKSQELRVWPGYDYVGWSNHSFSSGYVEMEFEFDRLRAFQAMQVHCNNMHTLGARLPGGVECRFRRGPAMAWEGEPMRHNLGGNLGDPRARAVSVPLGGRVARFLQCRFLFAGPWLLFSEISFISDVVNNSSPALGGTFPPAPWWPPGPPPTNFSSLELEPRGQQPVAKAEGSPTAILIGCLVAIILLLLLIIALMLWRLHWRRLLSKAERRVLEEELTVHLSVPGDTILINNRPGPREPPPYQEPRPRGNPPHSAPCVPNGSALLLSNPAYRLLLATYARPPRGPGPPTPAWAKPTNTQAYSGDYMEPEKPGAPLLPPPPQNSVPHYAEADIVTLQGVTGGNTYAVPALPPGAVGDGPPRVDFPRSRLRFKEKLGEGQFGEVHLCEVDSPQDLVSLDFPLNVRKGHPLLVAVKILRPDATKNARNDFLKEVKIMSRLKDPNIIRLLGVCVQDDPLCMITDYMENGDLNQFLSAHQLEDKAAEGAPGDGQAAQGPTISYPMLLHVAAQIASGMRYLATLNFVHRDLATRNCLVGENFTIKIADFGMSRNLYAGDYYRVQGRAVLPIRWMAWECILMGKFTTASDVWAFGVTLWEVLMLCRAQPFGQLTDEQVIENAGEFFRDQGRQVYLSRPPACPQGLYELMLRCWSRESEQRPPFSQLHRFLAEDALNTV
UniProt Q9Y463, whole entry, looked up: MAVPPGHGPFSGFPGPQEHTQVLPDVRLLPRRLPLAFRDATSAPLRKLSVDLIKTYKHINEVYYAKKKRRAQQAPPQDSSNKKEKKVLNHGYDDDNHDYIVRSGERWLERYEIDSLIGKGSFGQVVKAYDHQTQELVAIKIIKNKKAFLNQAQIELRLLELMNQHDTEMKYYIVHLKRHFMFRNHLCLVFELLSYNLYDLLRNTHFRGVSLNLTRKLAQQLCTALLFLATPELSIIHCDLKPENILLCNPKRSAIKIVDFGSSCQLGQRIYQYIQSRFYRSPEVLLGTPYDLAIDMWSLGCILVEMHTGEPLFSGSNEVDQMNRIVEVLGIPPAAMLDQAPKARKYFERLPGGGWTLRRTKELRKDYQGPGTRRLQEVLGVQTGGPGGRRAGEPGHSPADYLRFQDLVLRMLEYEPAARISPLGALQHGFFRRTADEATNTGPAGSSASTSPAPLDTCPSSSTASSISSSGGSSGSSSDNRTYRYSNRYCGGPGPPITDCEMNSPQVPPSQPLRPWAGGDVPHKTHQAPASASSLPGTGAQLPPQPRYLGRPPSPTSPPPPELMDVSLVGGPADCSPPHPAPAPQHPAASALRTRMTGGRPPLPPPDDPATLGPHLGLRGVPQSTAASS
UniProt Q92630: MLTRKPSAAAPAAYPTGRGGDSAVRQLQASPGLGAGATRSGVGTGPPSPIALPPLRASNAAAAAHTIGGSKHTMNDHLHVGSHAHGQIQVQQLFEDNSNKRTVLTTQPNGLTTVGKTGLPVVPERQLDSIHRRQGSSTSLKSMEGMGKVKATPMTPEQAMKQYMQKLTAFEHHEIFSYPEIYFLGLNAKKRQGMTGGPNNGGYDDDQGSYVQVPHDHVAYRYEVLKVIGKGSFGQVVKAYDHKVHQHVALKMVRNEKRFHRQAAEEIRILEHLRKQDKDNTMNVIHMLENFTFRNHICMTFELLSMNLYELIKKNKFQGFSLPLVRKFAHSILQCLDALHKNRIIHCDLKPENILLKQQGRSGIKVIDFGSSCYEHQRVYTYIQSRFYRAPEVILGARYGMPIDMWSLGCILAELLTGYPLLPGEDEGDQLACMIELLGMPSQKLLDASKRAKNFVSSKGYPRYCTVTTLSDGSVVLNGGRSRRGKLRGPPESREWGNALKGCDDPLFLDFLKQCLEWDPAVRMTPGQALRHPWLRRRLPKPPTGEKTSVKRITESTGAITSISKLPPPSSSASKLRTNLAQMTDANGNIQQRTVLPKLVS

How the values were obtained:
Assay in all cases: number of time points (of 5) at which kinase-Nluc abundance scored as decreased, DMSO-normalised (count); higher = more persistent destabilization
Details in all cases: K562; 2-18 h
CSNK1A1 = CSNK1A1 (UniProt P48729)
CSNK1D = CSNK1D (UniProt P48730)
DDR1 = DDR1 (UniProt Q08345)
DYRK1B = DYRK1B (UniProt Q9Y463)
DYRK2 = DYRK2 (UniProt Q92630)
EGFR = EGFR (UniProt P00533)
EGFR_G719S = EGFR_G719S (UniProt P00533)
EGFR_G719S_T790M = EGFR_G719S_T790M (UniProt P00533)
EGFR_L718V = EGFR_L718V (UniProt P00533)
EGFR_L858R = EGFR_L858R (UniProt P00533)

Measured: number of time points

CCS(=O)(=O)c1ccc(Oc2cc(O[C@@H](C)CO)cc(C(=O)Nc3ccn(C)n3)c2)cn1 (10 µM)
0: all assays above

C[C@@H](N)COc1ccc(-c2cnc3ccc(N[C@H](C)c4cccc(F)c4)nn23)cc1 [Taletrectinib] (2.5 µM)
0: all assays above

O=C1c2cccc(O)c2C(=O)c2c(O)cccc21 [Danthron] (10 µM)
0: all assays above

O=C1C(=Cc2ccc(O)c(O)c2)Oc2ccccc21 (2.5 µM)
0: all assays above

N#C/C(=C\c1ccc[nH]1)c1ccc(Cl)c(Cl)c1 (2.5 µM)
0: all assays above

Cn1sc(=O)n(Cc2ccccc2)c1=O (10 µM)
0: all assays above

C[C@]1(O)C[C@@](N)(c2ccc(-c3nc4n(c3-c3ccccc3)COc3ccncc3-4)cc2)C1 [TAS-117 (hydrochloride)] (10 µM)
0: all assays above

CCN1C(C)(C)CC(Oc2ccc(C(=O)Nc3ccc(NC(=O)Nc4cc(C(C)(C)C)on4)cc3)nc2)CC1(C)C (10 µM)
0: all assays above

C[C@@H]1CN(CC(=O)Nc2ccc3c(c2)Cc2cccc(-c4cc(=O)cc(N5CCOCC5)o4)c2S3)C[C@H](C)O1 (2.5 µM)
0: all assays above

O=C(N=c1sccn1Cc1ccccc1)c1c[nH]c2ncccc12 (10 µM)
0: all assays above

CC(=O)Nc1nc(C)c(-c2cc3c(c(S(C)(=O)=O)c2)C(=O)N([C@@H](C)C2CC2)C3)s1 (2.5 µM)
0: all assays above

CCC(=O)N1CC[C@H](Nc2ncnc3c2CN(c2cnc(OC)c(C(F)(F)F)c2)CC3)C1 [Leniolisib] (10 µM)
0: all assays above

CC(C)(C)c1ccc(C(=O)Nc2cn3cc(-n4ccnc4)ccc3n2)cc1 (10 µM)
0: all assays above

C1=N/C2=N/c3ccc(OCCN4CCCC4)c(c3)COC/C=C/COCc3cccc(c3)C(=C1)N2 [Pacritinib] (2.5 µM)
0: all assays above

Cc1occ2c1C(=O)c1c(O)ccc(O)c1C2 (2.5 µM)
0: all assays above

CC(=O)NCC(=O)N[C@@H](C)C(=O)N[C@@H](CCC(N)=O)C(=O)N[C@@H](Cc1ccccc1)C(=O)N[C@@H](CO)C(=O)N[C@@H](CCCCN)C(=O)N[C@H](C(=O)N[C@@H](C)C(=O)N[C@@H](C)C(=O)N[C@@H](CCCCN)C(=O)O)[C@@H](C)O (10 µM)
0: all assays above

O=c1ccc2cc(O)c(O)cc2o1 [Esculetin] (10 µM)
0: all assays above

As a working copy, 2 of the compounds above.
Cc1occ2c1C(=O)c1c(O)ccc(O)c1C2 (2.5 µM)
0: all assays above

CC(=O)NCC(=O)N[C@@H](C)C(=O)N[C@@H](CCC(N)=O)C(=O)N[C@@H](Cc1ccccc1)C(=O)N[C@@H](CO)C(=O)N[C@@H](CCCCN)C(=O)N[C@H](C(=O)N[C@@H](C)C(=O)N[C@@H](C)C(=O)N[C@@H](CCCCN)C(=O)O)[C@@H](C)O (10 µM)
0: all assays above

Further records follow.

C=CC(=O)N1CCN(c2nc(OC[C@@H]3CCCN3C)nc3c2CCN(c2cccc4cccc(C)c24)C3)C[C@@H]1CC#N (2.5 µM)
0: all assays above

CN(C)C(=O)c1cc2cnc(Nc3ccc(NC(=O)C4(C(=O)Nc5ccc(F)cc5)CC4)cc3)nc2n1C1CCCC1 (2 µM)
3: DDR1
0: all other assays above

O=C(NCc1cccc(O)c1)c1cc2cc(F)ccc2[nH]1 (10 µM)
0: all assays above

COc1ncc2cc(C(=O)Nc3cc(C(=O)NCc4cccc(Cl)c4)ccc3Cl)c(=O)[nH]c2n1 (2.5 µM)
0: all assays above

COC[C@H]1Cn2cc(-c3nc(Nc4ccnn4C)ncc3C)nc2C(=O)N1Cc1ccc(F)c(F)c1 (10 µM)
0: all assays above

Cc1cc(/C=C2\CC/C(=C\c3cc(C)c(O)c(C)c3)C2=O)cc(C)c1O [Pentagamavunon-1] (2.5 µM)
0: all assays above

N#Cc1cn([C@@H]2O[C@H](CO)[C@@H](O)[C@H]2O)c2nc[nH]c(=O)c12 [Jaspamycin] (10 µM)
0: all assays above

O=C(N/N=C/c1ccc([N+](=O)[O-])o1)c1ccc(O)cc1 [Nifuroxazide] (10 µM)
3: DYRK2
0: CSNK1D | EGFR | EGFR_L718V
2: CSNK1A1 | DDR1 | EGFR_G719S_T790M
1: all other assays above

NC(=O)c1ccc2nc(-c3ccc(C4(N)CCC4)cc3)c(-c3ccccc3)n2n1 (10 µM)
0: all assays above

CCn1c(-c2nonc2N)nc2c(C#CCO)ncc(OCCCN)c21 [AKT Kinase Inhibitor] (10 µM)
0: all assays above

CC(C)n1cnnc1-c1cccc(NC(=O)c2cc3ccc(F)cc3[nH]2)n1 (2.5 µM)
1: CSNK1A1 | EGFR_L718V
4: DYRK2
0: DYRK1B | EGFR
3: all other assays above

CC(=O)c1cc(O)ccc1O [2,5-Dihydroxyacetophenone] (10 µM)
0: all assays above

CC1=C(C(=O)Nc2ccc3[nH]ncc3c2)C(c2ccc(F)c(C(=O)NCc3ccccn3)c2)NC(=O)N1 (stereo not given) (10 µM)
0: all assays above

O=C1c2c(O)cc(O)cc2O[C@H](c2cc(O)c(O)c(O)c2)[C@H]1O [Dihydromyricetin] (10 µM)
0: all assays above

Cn1cc(-c2ccc3nnc(Sc4ccc5nn(C)cc5c4)n3n2)cn1 [c-Met inhibitor 1] (10 µM)
0: all assays above

CCCCNc1ncc2c(-c3ccc(CN4CCN(C)CC4)cc3)cn([C@H]3CC[C@H](O)CC3)c2n1 [UNC2025 (hydrochloride)] (2.5 µM)
4: DDR1 | DYRK2
0: all other assays above

COC(=O)c1cc2c(OC(C)C)cc(OC(C)C)cc2[nH]1 (2.5 µM)
0: all assays above

Filtered by structure: the entries above containing fluorine
C[C@@H](N)COc1ccc(-c2cnc3ccc(N[C@H](C)c4cccc(F)c4)nn23)cc1 [Taletrectinib] (2.5 µM)
0: all assays above

CCC(=O)N1CC[C@H](Nc2ncnc3c2CN(c2cnc(OC)c(C(F)(F)F)c2)CC3)C1 [Leniolisib] (10 µM)
0: all assays above

CN(C)C(=O)c1cc2cnc(Nc3ccc(NC(=O)C4(C(=O)Nc5ccc(F)cc5)CC4)cc3)nc2n1C1CCCC1 (2 µM)
3: DDR1
0: all other assays above

O=C(NCc1cccc(O)c1)c1cc2cc(F)ccc2[nH]1 (10 µM)
0: all assays above

COC[C@H]1Cn2cc(-c3nc(Nc4ccnn4C)ncc3C)nc2C(=O)N1Cc1ccc(F)c(F)c1 (10 µM)
0: all assays above

CC(C)n1cnnc1-c1cccc(NC(=O)c2cc3ccc(F)cc3[nH]2)n1 (2.5 µM)
1: CSNK1A1 | EGFR_L718V
4: DYRK2
0: DYRK1B | EGFR
3: all other assays above

CC1=C(C(=O)Nc2ccc3[nH]ncc3c2)C(c2ccc(F)c(C(=O)NCc3ccccn3)c2)NC(=O)N1 (stereo not given) (10 µM)
0: all assays above

(listing goes on)

COc1ccc(C(=O)c2cn(C(C)C)c3ncnc(N)c23)cc1NC(=O)Nc1ccc(Cl)cc1Cl (10 µM)
2: DDR1
0: all other assays above

COc1ccc2c(c1)C[C@H](C(=O)Nc1ccc(-c3cn[nH]c3)cc1OCCN(C)C)CO2 [Chroman 1] (10 µM)
0: all assays above

COc1cc(/C=C/c2ccc(NC(=O)/C=C/c3cc(OC)c(OC)c(OC)c3)cc2)cc(OC)c1 (2.5 µM)
0: all assays above

COC(=O)/C=C/c1ccc(O)c(OC)c1 [Ferulic acid methyl ester] (10 µM)
0: all assays above

COc1ccc(F)cc1C(=O)NCc1ccc(-c2nn([C@@H](C)C(F)(F)F)c(N)c2C(N)=O)cc1 [Pirtobrutinib] (10 µM)
0: all assays above

Cc1ncc(F)c(Nc2n[nH]c3c2CN(C(=O)N2C[C@@H](C)N(CC4CCOCC4)C[C@@H]2C)C3(C)C)n1 (10 µM)
0: all assays above

C=CCN(/C=C1/C(=O)O[C@H](COC)[C@@]2(C)C1=C(O)C(=O)C1=C2[C@H](OC(C)=O)C[C@]2(C)C(=O)CC[C@@H]12)CC=C [Sonolisib] (2.5 µM)
3: DDR1
0: all other assays above

CN(c1ccc(C(F)(F)F)cc1)S(=O)(=O)c1ccc(C(=O)Nc2nc(-c3ccccn3)cs2)cc1 (2.5 µM)
0: all assays above

Cn1cc(-c2cn3nccc3c(-c3cnn([C@]4(CC#N)C[C@@H](C#N)C4)c3)n2)cn1 (10 µM)
0: all assays above

COc1ccc(S(=O)(=O)N(CCO)c2ccccc2CN(C)CC=Cc2ccc(Cl)cc2)cc1 (2.5 µM)
0: all assays above

COc1cc(Nc2nc3ccccc3nc2NS(=O)(=O)c2ccc(NC(=O)c3ccc(C)c(OC)c3)cc2)cc(OC)c1 (10 µM)
0: all assays above

Cc1c(C(=O)Nc2ccc(Oc3ccnc4cc(OCC(C)(C)O)ccc34)c(F)c2)c(=O)n(-c2ccccc2)n1C [Ningetinib Tosylate] (10 µM)
1: CSNK1D | DDR1 | EGFR
2: EGFR_G719S
3: CSNK1A1 | DYRK2
0: all other assays above

O=S(=O)(N=Cc1c(O)ccc2ccccc12)c1cccs1 (10 µM)
0: all assays above

C=CC(=O)N1CCC[C@@H](n2c(=O)n(-c3ccc(Oc4ccccc4)cc3)c3c(N)nccc32)C1 [Tolebrutinib] (10 µM)
0: all assays above

COc1c(OCCCN2CCOCC2)ccc2c3n(c(=NC(=O)c4cnc(N)nc4)nc12)CCN3 [Copanlisib (dihydrochloride)] (10 µM)
4: DDR1 | DYRK2
3: CSNK1A1 | CSNK1D
2: all other assays above

CC(C)c1cnn2c(NCc3ccccc3)cc(NCCCCCCN)nc12 [BS-181 (hydrochloride)] (10 µM)
1: DDR1
0: all other assays above
